The values below come from publication PMC11699347, “Heme regulates protein interactions and phosphorylation of BACH2 intrinsically disordered region in humoral response” (iScience, 2024).

The chains behind the UniProt entries cited, without tags or fusion partners. Residues count along the entry.
UniProt P97303, residues 331-520: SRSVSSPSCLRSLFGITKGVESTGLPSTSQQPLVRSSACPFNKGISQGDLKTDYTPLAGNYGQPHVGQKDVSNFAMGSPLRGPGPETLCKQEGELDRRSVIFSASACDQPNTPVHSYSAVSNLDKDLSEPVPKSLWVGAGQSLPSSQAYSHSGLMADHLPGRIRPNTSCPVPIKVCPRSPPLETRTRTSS
UniProt E9QAE3: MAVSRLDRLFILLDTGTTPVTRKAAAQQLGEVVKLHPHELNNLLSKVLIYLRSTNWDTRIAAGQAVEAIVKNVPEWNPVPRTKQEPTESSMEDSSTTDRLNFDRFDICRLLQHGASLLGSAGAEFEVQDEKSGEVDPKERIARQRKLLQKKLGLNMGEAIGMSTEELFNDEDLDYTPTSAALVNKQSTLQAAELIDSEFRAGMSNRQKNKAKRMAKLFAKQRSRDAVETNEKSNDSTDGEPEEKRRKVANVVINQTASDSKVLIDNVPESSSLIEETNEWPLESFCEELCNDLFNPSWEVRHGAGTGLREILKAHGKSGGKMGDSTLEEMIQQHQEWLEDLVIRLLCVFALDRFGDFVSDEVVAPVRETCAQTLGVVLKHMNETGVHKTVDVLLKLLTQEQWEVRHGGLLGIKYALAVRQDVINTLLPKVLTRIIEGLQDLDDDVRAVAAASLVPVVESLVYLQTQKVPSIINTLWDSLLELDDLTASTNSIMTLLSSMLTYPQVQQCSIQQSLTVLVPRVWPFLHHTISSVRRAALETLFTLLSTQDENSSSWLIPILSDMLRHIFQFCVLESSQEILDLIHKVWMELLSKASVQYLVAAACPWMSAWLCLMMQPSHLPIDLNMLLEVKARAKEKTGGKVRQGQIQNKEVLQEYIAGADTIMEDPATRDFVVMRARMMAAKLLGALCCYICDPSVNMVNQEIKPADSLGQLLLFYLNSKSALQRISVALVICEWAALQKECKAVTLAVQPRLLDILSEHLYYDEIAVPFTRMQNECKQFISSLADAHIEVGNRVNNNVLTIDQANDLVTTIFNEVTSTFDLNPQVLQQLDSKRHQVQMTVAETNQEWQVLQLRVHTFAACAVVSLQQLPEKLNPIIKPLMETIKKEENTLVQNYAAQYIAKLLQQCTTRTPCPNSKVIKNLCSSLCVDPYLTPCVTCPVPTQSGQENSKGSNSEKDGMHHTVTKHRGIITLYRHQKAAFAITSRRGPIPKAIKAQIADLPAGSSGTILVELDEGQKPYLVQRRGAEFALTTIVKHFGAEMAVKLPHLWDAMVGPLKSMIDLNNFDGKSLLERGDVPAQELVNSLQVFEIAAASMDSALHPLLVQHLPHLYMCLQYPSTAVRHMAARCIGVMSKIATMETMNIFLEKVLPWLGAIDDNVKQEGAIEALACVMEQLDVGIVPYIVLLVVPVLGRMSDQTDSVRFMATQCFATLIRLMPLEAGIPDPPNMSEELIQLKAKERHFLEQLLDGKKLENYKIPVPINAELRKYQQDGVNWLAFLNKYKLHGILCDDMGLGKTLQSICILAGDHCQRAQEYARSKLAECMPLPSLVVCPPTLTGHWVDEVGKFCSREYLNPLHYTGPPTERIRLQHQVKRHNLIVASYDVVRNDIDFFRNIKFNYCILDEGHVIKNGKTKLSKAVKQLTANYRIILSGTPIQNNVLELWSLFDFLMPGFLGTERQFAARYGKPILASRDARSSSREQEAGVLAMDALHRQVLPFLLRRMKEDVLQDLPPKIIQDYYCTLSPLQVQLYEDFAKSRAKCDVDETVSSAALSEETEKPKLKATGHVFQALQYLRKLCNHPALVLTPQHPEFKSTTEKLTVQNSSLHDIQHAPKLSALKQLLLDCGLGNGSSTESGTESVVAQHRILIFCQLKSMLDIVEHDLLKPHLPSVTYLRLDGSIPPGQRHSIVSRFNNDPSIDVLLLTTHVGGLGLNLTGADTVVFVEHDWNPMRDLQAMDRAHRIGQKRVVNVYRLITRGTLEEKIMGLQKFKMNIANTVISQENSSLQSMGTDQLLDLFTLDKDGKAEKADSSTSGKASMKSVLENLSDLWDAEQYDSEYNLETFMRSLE
UniProt Q91ZW3: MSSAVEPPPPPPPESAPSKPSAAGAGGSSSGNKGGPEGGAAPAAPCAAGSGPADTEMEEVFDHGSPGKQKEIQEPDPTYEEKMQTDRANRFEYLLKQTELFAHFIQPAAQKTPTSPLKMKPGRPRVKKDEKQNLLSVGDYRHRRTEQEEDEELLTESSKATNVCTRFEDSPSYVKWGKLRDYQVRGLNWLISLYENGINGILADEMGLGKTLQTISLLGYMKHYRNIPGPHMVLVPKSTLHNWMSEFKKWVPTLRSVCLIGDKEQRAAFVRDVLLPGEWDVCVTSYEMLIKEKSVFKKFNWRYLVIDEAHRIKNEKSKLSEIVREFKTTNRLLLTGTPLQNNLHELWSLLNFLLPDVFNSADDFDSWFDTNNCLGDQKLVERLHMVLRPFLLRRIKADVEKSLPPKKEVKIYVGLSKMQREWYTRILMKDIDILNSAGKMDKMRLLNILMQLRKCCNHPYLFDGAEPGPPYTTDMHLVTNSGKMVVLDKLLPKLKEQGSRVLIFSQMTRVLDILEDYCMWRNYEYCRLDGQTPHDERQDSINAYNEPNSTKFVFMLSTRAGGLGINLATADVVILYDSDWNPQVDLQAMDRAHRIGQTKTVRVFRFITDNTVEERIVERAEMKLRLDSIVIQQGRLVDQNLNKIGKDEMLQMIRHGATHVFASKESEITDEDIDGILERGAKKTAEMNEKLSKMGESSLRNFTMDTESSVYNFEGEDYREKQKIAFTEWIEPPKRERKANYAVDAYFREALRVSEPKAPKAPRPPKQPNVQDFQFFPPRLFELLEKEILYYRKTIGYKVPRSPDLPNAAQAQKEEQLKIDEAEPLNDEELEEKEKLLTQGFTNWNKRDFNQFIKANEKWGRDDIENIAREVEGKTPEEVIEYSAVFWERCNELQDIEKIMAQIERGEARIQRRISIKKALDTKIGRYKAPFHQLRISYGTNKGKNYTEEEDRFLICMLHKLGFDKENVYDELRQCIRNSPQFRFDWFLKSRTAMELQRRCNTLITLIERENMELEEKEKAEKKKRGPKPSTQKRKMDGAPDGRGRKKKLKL
UniProt Q9CXY6: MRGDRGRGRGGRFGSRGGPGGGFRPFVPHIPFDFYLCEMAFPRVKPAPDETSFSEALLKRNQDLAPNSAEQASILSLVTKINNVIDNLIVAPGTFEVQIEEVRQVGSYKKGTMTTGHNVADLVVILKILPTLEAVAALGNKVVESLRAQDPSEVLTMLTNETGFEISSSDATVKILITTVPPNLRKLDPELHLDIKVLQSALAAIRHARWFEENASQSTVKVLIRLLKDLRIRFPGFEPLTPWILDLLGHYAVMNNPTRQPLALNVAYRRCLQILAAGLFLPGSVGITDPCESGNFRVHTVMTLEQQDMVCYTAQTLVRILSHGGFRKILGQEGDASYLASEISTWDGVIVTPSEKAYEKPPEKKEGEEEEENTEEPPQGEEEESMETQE
UniProt P13864: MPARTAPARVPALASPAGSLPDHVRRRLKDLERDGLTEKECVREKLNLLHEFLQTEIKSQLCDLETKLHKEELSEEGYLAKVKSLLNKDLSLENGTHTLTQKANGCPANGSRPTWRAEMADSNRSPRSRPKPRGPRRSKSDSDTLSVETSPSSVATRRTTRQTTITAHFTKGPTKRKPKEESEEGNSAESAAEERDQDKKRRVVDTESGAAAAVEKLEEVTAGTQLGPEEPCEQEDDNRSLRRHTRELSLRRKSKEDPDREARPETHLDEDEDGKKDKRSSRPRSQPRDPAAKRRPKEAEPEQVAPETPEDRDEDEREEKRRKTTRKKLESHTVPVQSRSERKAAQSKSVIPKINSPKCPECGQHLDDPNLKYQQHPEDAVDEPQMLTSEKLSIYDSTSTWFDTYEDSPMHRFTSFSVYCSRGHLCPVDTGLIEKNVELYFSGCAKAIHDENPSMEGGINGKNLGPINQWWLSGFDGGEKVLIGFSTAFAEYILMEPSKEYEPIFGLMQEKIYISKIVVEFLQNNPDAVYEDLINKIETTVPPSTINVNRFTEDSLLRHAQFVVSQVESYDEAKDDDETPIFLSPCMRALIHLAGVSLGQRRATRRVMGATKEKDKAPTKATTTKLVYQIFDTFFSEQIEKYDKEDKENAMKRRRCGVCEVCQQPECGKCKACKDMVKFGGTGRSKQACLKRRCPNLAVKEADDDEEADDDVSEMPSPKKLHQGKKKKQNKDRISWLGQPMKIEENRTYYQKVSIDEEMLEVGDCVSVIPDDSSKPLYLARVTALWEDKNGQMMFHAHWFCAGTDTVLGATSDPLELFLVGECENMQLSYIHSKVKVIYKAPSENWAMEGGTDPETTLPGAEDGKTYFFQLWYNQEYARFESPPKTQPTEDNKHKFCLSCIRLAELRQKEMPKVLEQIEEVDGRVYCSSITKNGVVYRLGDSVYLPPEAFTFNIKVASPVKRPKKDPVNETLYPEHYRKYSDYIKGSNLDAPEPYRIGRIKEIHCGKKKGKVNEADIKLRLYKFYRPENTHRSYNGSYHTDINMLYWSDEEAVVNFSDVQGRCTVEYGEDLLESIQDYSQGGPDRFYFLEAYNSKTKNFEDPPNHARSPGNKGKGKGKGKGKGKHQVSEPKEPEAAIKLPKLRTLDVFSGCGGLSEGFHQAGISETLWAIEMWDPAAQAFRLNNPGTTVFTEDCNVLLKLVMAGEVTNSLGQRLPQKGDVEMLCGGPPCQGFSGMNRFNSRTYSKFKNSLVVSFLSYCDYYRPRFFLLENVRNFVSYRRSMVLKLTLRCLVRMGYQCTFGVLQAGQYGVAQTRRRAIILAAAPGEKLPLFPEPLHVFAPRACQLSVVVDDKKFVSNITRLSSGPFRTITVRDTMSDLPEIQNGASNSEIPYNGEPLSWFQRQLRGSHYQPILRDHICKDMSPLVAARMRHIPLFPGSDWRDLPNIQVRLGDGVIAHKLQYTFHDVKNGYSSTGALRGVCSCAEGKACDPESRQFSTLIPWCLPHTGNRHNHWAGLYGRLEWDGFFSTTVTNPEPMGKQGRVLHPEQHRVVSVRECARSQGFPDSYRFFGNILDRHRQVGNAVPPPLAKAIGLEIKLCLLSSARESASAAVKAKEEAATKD

No constants are given. Whether binding was seen depends on the method and setting. In cells and extracts the contact can be indirect. A yes stands for co-enrichment or nearness to the bait. Other partners may have been found.

The assay concerns the target FLAG-HA-BACH2-IDR (mouse) (UniProt P97303). The experiment in a line: affinity purification with mass spectrometry; ReCLIP: in-cell cross-linking (DSP, DTME) of BAL17 cells stably expressing FLAG-HA-BACH2-IDR, RIPA lysate, FLAG-M2 agarose, FLAG peptide elution, cross-links reversed with DTT, LC-MS/MS; compared with mock-infected cells.

“TATA-binding protein-associated factor 172 (from UniProt E9QAE3 1-1848)”: the binding entry is “binds”.

As to “SWI/SNF-related matrix-associated actin-dependent regulator of chromatin subfamily A member 5 (from UniProt Q91ZW3 1-1051)”, the binding result was “binds”.

As for “Transcription activator BRG1 (from UniProt Q3TKT4 1-1613)”, the binding entry is listed as “binds”.

In the case of “Interleukin enhancer-binding factor 2 (from UniProt Q9CXY6 1-390)”, the binding entry was “binds”.

Turning to “CCR4-NOT transcription complex subunit 1 (from UniProt Q6ZQ08 1-2375)”, the binding entry is listed as “binds”.

Regarding “DNA (cytosine-5)-methyltransferase 1 (from UniProt P13864 1-1620) (enzyme)”, the binding result was “binds”.

As for “AT-rich interactive domain-containing protein 1A (from UniProt A2BH40 1-2283)”, the binding result is “binds”.

In the case of “DNA-directed RNA polymerase I subunit RPA1 (from UniProt O35134 1-1717)”, the binding result is listed as “binds”.

B1: Cleavage and polyadenylation specificity factor subunit 1 (protein, UniProt Q9EPU4 1-1441)
chain: MYAVYKQAHPPTGLEFTMYCNFFNNSERNLVVAGTSQLYVYRLNRDAEALTKNDGSTEGKAHREKLELVASFSFFGNVMSMASVQLAGAKRDALLLSFKDAKLSVVEYDPGTHDLKTLSLHYFEEPELRDGFVQNVHTPRVRVDPDGRCAAMLIYGTRLVVLPFRRESLAEEHEGLMGEGQRSSFLPSYIIDVRALDEKLLNIIDLQFLHGYYEPTLLILFEPNQTWPGRVAVRQDTCSIVAISLNITQKVHPVIWSLTSLPFDCTQALAVPKPIGGVVIFAVNSLLYLNQSVPPYGVALNSLTTGTTAFPLRTQEGVRITLDCAQAAFISYDKMVISLKGGEIYVLTLITDGMRSVRAFHFDKAAASVLTTSMVTMEPGYLFLGSRLGNSLLLKYTEKLQEPPASSVREAADKEEPPSKKKRVEPAVGWTGGKTVPQDEVDEIEVYGSEAQSGTQLATYSFEVCDSMLNIGPCANAAVGEPAFLSEEFQNSPEPDLEIVVCSGYGKNGALSVLQKSIRPQVVTTFELPGCYDMWTVIAPVRKEEEETPKAESTEQEPSAPKAEEDGRRHGFLILSREDSTMILQTGQEIMELDTSGFATQGPTVFAGNIGDNRYIVQVSPLGIRLLEGVNQLHFIPVDLGAPIVQCAVADPYVVIMSAEGHVTMFLLKSDSYGGRHHRLALHKPPLHHQSKVIALCLYRDVSGMFTTESRLGGARDELGGRSGSEAEGLGSETSPTVDDEEEMLYGDSSALFSPSKEEARRSSQPPADRDPAPFKADPTHWCLLVRENGTMEIYQLPDWRLVFLVKNFPVGQRVLVDSSFGQPTTQGEVRKEEATRQGELPLVKEVLLVALGSRQSRPYLLVHVDQELLIYEAFPHDSQLGQGNLKVRFKKVPHNINFREKKPKPSKKKAEGCSTEEGSGGRGRVARFRYFEDIYGYSGVFICGPSPHWLLVTGRGALRLHPMGIDGPIDSFAPFHNVNCPRGFLYFNRQGELRISVLPAYLSYDAPWPVRKIPLRCTAHYVAYHVESKVYAVATSTNTPCTRIPRMTGEEKEFEAIERDDRYIHPQQEAFSIQLISPVSWEAIPNARIELEEWEHVTCMKTVSLRSEETVSGLKGYVAAGTCLMQGEEVTCRGRILIMDVIEVVPEPGQPLTKNKFKVLYEKEQKGPVTALCHCNGHLVSAIGQKIFLWSLRASELTGMAFIDTQLYIHQMISVKNFILAADVMKSISLLRYQEESKTLSLVSRDAKPLEVYSVDFMVDNAQLGFLVSDRDRNLMVYMYLPEAKESFGGMRLLRRADFHVGAHVNTFWRTPCRGAAEGPSKKSVVWENKHITWFATLDGGIGLLLPMQEKTYRRLLMLQNALTTMLPHHAGLNPRAFRMLHVDRRILQNAVRNVLDGELLNRYLYLSTMERSELAKKIGTTPDIILDDLLETDRVTAHF
In the case of B1, the binding result was “binds”.

B2: Constitutive coactivator of PPAR-gamma-like protein 1 (protein, UniProt Q6A0A9 1-1112)
chain: MGVQGFQDYIEKHCPSAVVPVELQKLARGSLVGGGRQRPPQTPLRLLVDADNCLHRLYGGFYTDWVSGGQWNHMLGYLAALAKACFGGNIELFVFFNGALEKARLHEWVKRQGNERQTAQQIVSHVQNKGTPPPKVWFLPPVCMAHCIRLALIRFHVKVAQSIEDHHQEVIGFCRENGFHGLVAYDSDYALCNIPYYFSAHALKLSRNGKSLTTSQYLMHEVAKQLDLNPNRFPIFAALLGNHILPDEDLASFHWSLLGPEHPLASLKVRAHQLVLPPCDVVIKAVADYVRNIHDTSDLDAIAKDVFQHSQSRTDDKVIRFKRAVGYYSATSKPMPFHPPHYLARPNPFGMPGMVPPYVPPQMLNIPQTSLQAKPAVPQVPSPGGTPGQAPYPYSLSEPALTLDTSGKNLTEQNSYSNIPHEGKHTPLYERSSPINLAQSGSPNHVDSAYFPGSSTSSSSDNDEGGGGATNHISGNKIGWEKTGSHAEPLARGDPGDQVKVEGSSTASSGSQLAEGKGSHMGTVQPIPCLLSMPTRNHMDITTPPLPPVAPEVLRVAEHRHKKGLMYPYIFHILTKGEIKIAVSIEDEANKDLPPAALLYRPVRQYVYGVLFSLAESRKKTERLAFRKNRLPPEFSPLIIKEWAAYKGKSPQTPELVEALAFREWTCPNLKRLWLGKAVEDKNRRMRAFLACMRSDTPAMLNPANVPTHLMVLCCVLRYMVQWPGARILRRQELDAFLAQALSPKLYEPDQLQELKIDNLDPRGIQLSALFMSGVDMALFANDACGQPIPWEHCCPWMYFDGKLFQSKLLKASREKTPLIDLCDGQAEQAAKVEKMRQSILEGLSFSRQNHPLPFPPPPALPFYPASVYPRHFGPVPPSQGRGRGFAGVCGFGGHYGETVATGPYRAFRVTAASGHCGAFSGSDSSRTSKSQGGVQPIPSQGGKLEIAGTVVGHWAGSRRGRGGRGPFPLQVVSVGGPARGRPRGVISTPVIRTFGRGGRYYGRGYKSQGAIQGRPPYAASAEEVAKELKSKSGESKSSAVSLAENGVMAEEKPVPQLNGSTGDPRVPSHSESALNNDSKPCNTNPHLNALSTDSACRREAALEAAVLNKEE
In the case of B2, the binding entry is “binds”.

B3: Protein strawberry notch homolog 2 (protein, UniProt Q7TNB8 1-1349)
chain: MLAVEPTMDGDFPPHELPPPGGGIQLQNRLLHCPWWGSFSPSLYPTFSSENQQFVGSTPFLGGQSCPETSYPTTATVPSFFSKSSDFPQDPSCLEDLSNASVFSSSVDSLSDIPDTPDFLQADSLNEVPTIWDVSTTSTTHDKLFIPSGPFSAPEDPVTSLSSTPLLISYQSHSQPEEEEGEEEEETEELGHAETYADYVPSKSKIGKQHPDRVVETSTLSSVPPPDITYTLALPTSDNSTLSALQLEAITYACQQHEVLLPSGQRAGFLIGDGAGVGKGRTVAGIIVENYLRGRKKALWFSASNDLKYDAERDLRDIEAPGIAVHALSKIKYGDNTTSEGVLFATYSALIGESQAGGQHRTRLRQILQWCGEGFDGVIVFDECHKAKNASSTKMGKAVLDLQSKLPQARVVYASATGASEPRNMIYMSRLGIWGEGTPFRTFEEFLHAIEKRGVGAMEIVAMDMKVSGMYIARQLSFSGVTFRIEEIPLSPAFQQVYNRAARLWAEALSVFQQAADWIGLESRKSLWGQFWSAHQRFFKYLCIAAKVHRLVELAQQELSRDKCVVIGLQSTGEARTREVLDENEGRLDCFVSAAEGVFLSLIQKHFPSTRRRRDRGGGKRKRRPRGRGPKASRLSLEAAGVIRISDGSSTESDAGLDSDFNSSPESLVDDDVVIVDAPTHPTDDRGSLYPLQRDLQGPGVVERVERLKQGLLAKVRALGRELPVNTLDQLIHQLGGPECVAEMTGRKGRVVSRPDGTVVFESRAEQGLSIDHVNLREKQRFMSGEKLVAIISEASSSGVSLQADRRVQNQRRRVHMTLELPWSADRAIQQFGRTHRSNQVSAPEYVFLISELAGERRFASIVAKRLESLGALTHGDRRATESRDLSKYNFENKYGARALSRVLATIMGQTDNRVPLPQGYPGGDTAFFRDMKQGLLSVGIGSRESRSGCLDVEKDCSITKFLNRILGLEVHKQNALFQYFSDTFDHLIEIDKKEGRYDMGILDLAPGINEIHEESQQVFLAPGHPQDGQVVFYKQISVDRGMKWEEALTRSLELKGPYDGFYLSYKVRGSKMSCLLAEQNRGEYFTVYKPNIGRQSQLETLDSLCRKFHRVTVEEAREPWESSYALSLEHCSHTTWNQRCRLTQEGKCCAQGLRLRHHYMLCGALLRVWGRIAAVMADVSSSSYLQIVRLKTKDKKKQVGIKIPEGCVHRVLQELQLMDAEVKRRSTHGLAARPPTPRAITLPCGPGEVLDLTYSPPAEAFPTPPRFAFPSLPPPDPSSLMLGARDPATNPVELAHQSCDINFREVLEDMLRSLRAGPTETPAPLVGVGGGGTERQSVIHFSPPFPNS
Consider B3, for which the binding result is listed as “binds”.

B4: Microtubule-associated protein 1S (protein, UniProt Q8C052 1-973)
chain: MAAVMAAPEAVEAPSSLLLLVVGGECGCPGLLAYVMEELERGVRSWEDVDPAVCSLDEQLKAFVSRHSATFSSIVKGQRSLHHRGETLETLVLLNPSDKSLCDELRNLLMDPAPHKLLVLAGPCLEETGELLLQTGGFSAHHFLQVLGDKEVQDALASAPAAPALTVSCPTFGDWALLGPVPGLQLRLNPPAQLPASEGLRAFLEYVAESLEPPSPFELLEPPAAGGFLRLARPCCYVFPGGLGDAAFFAVNGFTVLVNGGSNPKSSFWKLVRHLDRVDAVLVTHAGADSLPGLNSLLRRKLAEREAAAGPQGQHEERLRRLLSPALGVVFLNAREAASRLRGGEDEAVCARSLLRSLGIAPLPLQRGPQPSCPTVLFEKLGVGRLELFVLHPPPGDPAAPACALLVWQPAAPGDKVVRVLFPGRTPPARLLDGLQRLQHLPCLRRPVVTTHDLEAPSRANSQDSLASRDSARKEPVRGTVGSIANRSTVRREPALATRDQKKDTRSGPTQPTARDTRRSGPGVVNTKPRVSQNGPRAPVLAAPLTAPVAECPGEAENILESERPPAPSPTLSPAQSPPPTAPGNSPERLSLSPLRPEPAPDASPSATTPTLTTPSLPAELGSPHSTEVDESLSVSFEQVLPAGDPGLSLPLRLARRSTSPHDVDLCLVSPCEFSHRKPPPPASPGSSDSSARSQERPPETPPTSVSESLPTLSDSDPVPVADSDDDAGSESAARDPPPTPRVPPPLPDVPGICMVDPEALPPRARQPLNTTNPSRSRKAPARPSSASATPRAATVAAKTKGPAGDRNRPLSARSEPADRPGRVPLTRKPSVPKTVPKMASATRLSSGPSGRPAPLAAGSPVYLDLAYLPGGGAGHLDQNFFLRVRALCYVISGQGQRQEEGLRAVLDALLAGKRQWDLDLQVTLIPTFDSAVMHRWYEETHAQHQALGIRVLGSGSLVSMQDEAFPACKVEF
With B4, the binding result was “binds”.
